Results as given in paper PMC5424160.
Results are given in words; binding and its absence hold for the method and conditions named. Binding seen in cells or lysates may run through a third protein. Some binding calls cover weakened binding; strength is not graded here.

Amino acid sequences for entries named in this document (tags omitted).
UniProt P01106: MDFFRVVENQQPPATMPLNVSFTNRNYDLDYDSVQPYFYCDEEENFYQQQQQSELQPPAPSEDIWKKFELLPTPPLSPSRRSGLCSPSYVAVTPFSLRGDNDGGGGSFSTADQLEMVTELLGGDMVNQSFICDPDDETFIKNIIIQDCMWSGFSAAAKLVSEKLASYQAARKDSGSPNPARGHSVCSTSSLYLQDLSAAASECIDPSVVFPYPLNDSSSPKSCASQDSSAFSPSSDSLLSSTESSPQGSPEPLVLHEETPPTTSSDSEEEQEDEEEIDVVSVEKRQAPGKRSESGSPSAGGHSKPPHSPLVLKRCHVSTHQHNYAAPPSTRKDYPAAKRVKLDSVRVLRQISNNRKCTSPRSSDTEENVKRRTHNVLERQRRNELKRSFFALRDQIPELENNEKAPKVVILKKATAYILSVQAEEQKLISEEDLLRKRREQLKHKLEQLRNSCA

Assays:
[1] = target: T1, endogenous Menin (human (endogenous in 293T)) (UniProt O00255); assay: co-IP; endogenous proteins, cells lysed in low-salt IP buffer (150 mM NaCl), side by side with the high-salt IP; IP of Menin
T1 sequence: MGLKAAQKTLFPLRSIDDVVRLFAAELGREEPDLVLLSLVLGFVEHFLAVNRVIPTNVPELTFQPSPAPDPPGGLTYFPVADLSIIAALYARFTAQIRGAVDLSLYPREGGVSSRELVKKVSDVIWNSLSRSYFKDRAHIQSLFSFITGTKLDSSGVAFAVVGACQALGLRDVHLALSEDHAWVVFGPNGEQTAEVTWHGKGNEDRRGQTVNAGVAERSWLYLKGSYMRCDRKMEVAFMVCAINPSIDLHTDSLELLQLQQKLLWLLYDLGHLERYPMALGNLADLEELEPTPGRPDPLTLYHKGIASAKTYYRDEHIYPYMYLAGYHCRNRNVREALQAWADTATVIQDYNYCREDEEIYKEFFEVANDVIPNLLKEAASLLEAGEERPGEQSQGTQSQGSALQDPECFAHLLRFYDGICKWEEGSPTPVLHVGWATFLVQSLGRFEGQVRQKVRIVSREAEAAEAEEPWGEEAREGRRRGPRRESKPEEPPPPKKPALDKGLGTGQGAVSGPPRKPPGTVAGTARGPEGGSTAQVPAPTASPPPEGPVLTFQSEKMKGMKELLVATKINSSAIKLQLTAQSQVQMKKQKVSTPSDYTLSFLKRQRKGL

[2] = target: T1, endogenous Menin (human (endogenous in 293T)); assay: co-IP; endogenous proteins, 293T cells lysed in high-salt IP buffer (0.5% NP-40, 20 mM HEPES pH 7.5, 300 mM NaCl, 2 mM EDTA); IP with anti-Menin antibody or IgG

endogenous MYC (from UniProt P01106 1-454)
binding [1]: binds
binding [2]: binds
